{
  "source": "the supplement of paper PMC8858631",
  "note": "“And” between values parts separate entries of the source, which are not always exact repeats. Equal entries are not always repeated. Structures can show the parent of a compound that is named as a salt. This is one part of the list. Rule as the data show it: active = 0.5 or less and inactive = the rest. Single values are uncertain, as repeats are few or missing.",
  "data": [
    {"test_system": "SK-MEL-28", "experiment": "EEF2K protein level normalised to actin (western blot) after treatment (ratio (EEF2K/Actin)); higher = more EEF2K protein remaining (less EEF2K suppression)", "conditions": "5 µM; 24 h", "values": [
      {"smiles": "CC1=C(/C=C/C(C)=C/C=C/C(C)=C/C(=O)Nc2ccc(O)cc2)C(C)(C)CCC1", "note": "[Fenretinide]", "EEF2K protein level normalised to actin": "active: 0.21"},
      {"smiles": "Nc1cc(C(Cl)=C(Cl)Cl)c(S(N)(=O)=O)cc1S(N)(=O)=O", "note": "[Clorsulon]", "EEF2K protein level normalised to actin": "inactive: 2.22"},
      {"smiles": "Nc1ncn([C@@H]2O[C@H](CO)[C@@H](O)[C@H]2O)c(=O)n1", "note": "[Azacitidine]", "EEF2K protein level normalised to actin": "inactive: 0.72"},
      {"smiles": "CN(C)C/C=C/C(=O)Nc1cc2c(Nc3ccc(F)c(Cl)c3)ncnc2cc1O[C@H]1CCOC1", "note": "[Afatinib (BIBW2992)]", "EEF2K protein level normalised to actin": "active: 0.19"},
      {"smiles": "COc1cc2nccc(Oc3ccc(NC(=O)C4(C(=O)Nc5ccc(F)cc5)CC4)cc3)c2cc1OC", "note": "[Cabozantinib malate (XL184)]", "EEF2K protein level normalised to actin": "inactive: 2.3"},
      {"smiles": "O=c1[nH]cc(F)c(=O)[nH]1", "note": "[Fluorouracil (5-Fluoracil, 5-FU)]", "EEF2K protein level normalised to actin": "inactive: 0.6"},
      {"smiles": "CC[C@@]1(O)C(=O)OCc2c1cc1n(c2=O)Cc2cc3c(CN(C)C)c(O)ccc3nc2-1", "note": "[Topotecan]", "EEF2K protein level normalised to actin": "inactive: 9.27"},
      {"smiles": "CN1CC[C@@H](NC(=O)Nc2ccc(C#N)cc2)C[C@@H]1c1nc2ccccc2[nH]1", "EEF2K protein level normalised to actin": "inactive: 1.54"},
      {"smiles": "Nc1cccc2c1C(=O)N(C1CCC(=O)NC1=O)C2=O", "note": "(stereo unspecified) [Pomalidomide]", "EEF2K protein level normalised to actin": "inactive: 0.81"},
      {"smiles": "CC(C)(C)c1nc(-c2cccc(NS(=O)(=O)c3c(F)cccc3F)c2F)c(-c2ccnc(N)n2)s1", "EEF2K protein level normalised to actin": "inactive: 1.06"},
      {"smiles": "CC(=O)OCC(=O)[C@@]1(O)CC[C@H]2[C@@H]3CCC4=CC(=O)CC[C@]4(C)[C@H]3C(=O)C[C@@]21C", "note": "[Cortisone acetate]", "EEF2K protein level normalised to actin": "inactive: 2.34"},
      {"smiles": "N#Cc1ccc(C2CCCc3cncn32)cc1", "note": "(stereo unspecified) [Fadrozole]", "EEF2K protein level normalised to actin": "inactive: 0.72"},
      {"smiles": "CO[C@H]1C[C@@H]2CC[C@@H](C)[C@@](O)(O2)C(=O)C(=O)N2CCCC[C@H]2C(=O)O[C@H]([C@H](C)C[C@@H]2CC[C@@H](OCCO)[C@H](OC)C2)CC(=O)[C@H](C)/C=C(\\C)[C@@H](O)[C@@H](OC)C(=O)[C@H](C)C[C@H](C)/C=C/C=C/C=C/1C", "note": "[Everolimus (RAD001)]", "EEF2K protein level normalised to actin": "inactive: 1.64"},
      {"smiles": "Cc1c(-c2ccc(-c3ccccc3F)cc2)nc2ccc(F)cc2c1C(=O)O", "note": "[Brequinar]", "EEF2K protein level normalised to actin": "inactive: 0.95"},
      {"smiles": "Nc1ccn([C@@H]2O[C@H](CO)[C@@H](O)[C@@H]2O)c(=O)n1", "note": "[Cytarabine]", "EEF2K protein level normalised to actin": "active: 0.35"},
      {"smiles": "Nc1nnc(-c2cccc(Cl)c2Cl)c(N)n1", "note": "[Lamotrigine]", "EEF2K protein level normalised to actin": "inactive: 0.56"},
      {"smiles": "Cc1ccc(Nc2nccc(N(C)c3ccc4c(C)n(C)nc4c3)n2)cc1S(N)(=O)=O", "note": "[Pazopanib]", "EEF2K protein level normalised to actin": "inactive: 1.03"},
      {"smiles": "N#CC[C@H](C1CCCC1)n1cc(-c2ncnc3[nH]ccc23)cn1", "EEF2K protein level normalised to actin": "inactive: 1.98"},
      {"smiles": "COc1cccc2c1C(=O)c1c(O)c3c(c(O)c1C2=O)C[C@@](O)(C(=O)CO)C[C@@H]3O[C@H]1C[C@H](N)[C@H](O[C@@H]2CCCCO2)[C@H](C)O1", "note": "[Pirarubicin]", "EEF2K protein level normalised to actin": "inactive: 0.66"},
      {"smiles": "COc1cccc2c1C(=O)c1c(O)c3c(c(O)c1C2=O)CC(O)(C(=O)CO)CC3OC1CC(N)C(O)C(C)O1", "note": "(stereo unspecified) [Doxorubicin (Adriamycin) HCl]", "EEF2K protein level normalised to actin": "inactive: 2.09"},
      {"smiles": "CC(=O)O[C@]1(C(C)=O)CC[C@H]2[C@@H]3C=C(Cl)C4=CC(=O)[C@@H]5C[C@@H]5[C@]4(C)[C@H]3CC[C@@]21C", "note": "[Cyproterone Acetate]", "EEF2K protein level normalised to actin": "inactive: 1.43"},
      {"smiles": "Nc1nc2[nH]cc(CCc3ccc(C(=O)N[C@@H](CCC(=O)O)C(=O)O)cc3)c2c(=O)[nH]1", "note": "[Pemetrexed]", "EEF2K protein level normalised to actin": "inactive: 1.83"},
      {"smiles": "O=C(/C=C/C=C/c1ccc2c(c1)OCO2)N1CCCCC1", "note": "[Piperine]", "EEF2K protein level normalised to actin": "inactive: 0.69"},
      {"smiles": "COc1cc2c3cc1Oc1c(OC)c(OC)cc4c1[C@@H](Cc1ccc(O)c(c1)Oc1ccc(cc1)C[C@@H]3N(C)CC2)N(C)CC4", "note": "[Berbamine (dihydrochloride)]", "EEF2K protein level normalised to actin": "inactive: 0.96"},
      {"smiles": "O=C(O)CCCc1ccccc1", "note": "[Sodium Phenylbutyrate]", "EEF2K protein level normalised to actin": "inactive: 1.2"},
      {"smiles": "NC(=O)c1cccc2cn(-c3ccc([C@@H]4CCCNC4)cc3)nc12", "note": "[Niraparib (MK-4827) tosylate]", "EEF2K protein level normalised to actin": "inactive: 1.31"},
      {"smiles": "COc1ccc(-c2cc(=S)ss2)cc1", "note": "[Anethole trithione]", "EEF2K protein level normalised to actin": "inactive: 1.96"},
      {"smiles": "CN(N=O)C(=O)NC1C(O)OC(CO)C(O)C1O", "note": "(stereo unspecified) [Streptozotocin (STZ)]", "EEF2K protein level normalised to actin": "inactive: 1.13"},
      {"smiles": "COc1cc2nccc(Oc3ccc(NC(=O)C4(C(=O)Nc5ccc(F)cc5)CC4)cc3)c2cc1OC", "EEF2K protein level normalised to actin": "inactive: 1.25"},
      {"smiles": "CC(=O)c1c(C)c2cnc(Nc3ccc(N4CCNCC4)cn3)nc2n(C2CCCC2)c1=O", "EEF2K protein level normalised to actin": "inactive: 1.96 and inactive: 0.97"},
      {"smiles": "S=P(N1CC1)(N1CC1)N1CC1", "note": "[Thiotepa]", "EEF2K protein level normalised to actin": "inactive: 1.32"},
      {"smiles": "COc1cc(/C=C/C(=O)CC(=O)/C=C/c2ccc(O)c(OC)c2)ccc1O", "note": "[Curcumin]", "EEF2K protein level normalised to actin": "inactive: 0.75"},
      {"smiles": "O=C(O)CCCN1CCC(O[C@@H](c2ccc(Cl)cc2)c2ccccn2)CC1", "note": "[Bepotastine Besilate]", "EEF2K protein level normalised to actin": "inactive: 0.52"},
      {"smiles": "O=C(O)C1(C(=O)O)CCC1.[NH2-].[NH2-].[Pt+2]", "note": "[Carboplatin]", "EEF2K protein level normalised to actin": "inactive: 1.06"},
      {"smiles": "CC[C@]1(O)C[C@@H]2CN(CCc3c([nH]c4ccccc34)[C@@](C(=O)OC)(c3cc4c(cc3OC)N(C)[C@H]3[C@@](O)(C(=O)OC)[C@H](OC(C)=O)[C@]5(CC)C=CCN6CC[C@]43[C@@H]65)C2)C1", "note": "[Vinblastine sulfate]", "EEF2K protein level normalised to actin": "inactive: 0.82"},
      {"smiles": "COc1cc2nccc(Oc3ccc(NC(=O)NC4CC4)c(Cl)c3)c2cc1C(N)=O", "note": "[lenvatinib Mesylate]", "EEF2K protein level normalised to actin": "inactive: 0.53"}
    ]}
  ]
}
